In the data set the test system is ERα and ERβ. Description: Rating of ER affinity profile from the CHO-ERα and CHO-ERβ bioassays. The format is cell-based, human. The arrangement: key: (−) means that it does not satisfy the ER affinity profile of the present invention; (+) means a compound according to the invention, i.e. an agonist for ERα and an antagonist for ERβ. Conditions: ER affinity profile: agonist for ERα and antagonist for ERβ.

Some results come without the dose or concentration used.

`C=CC[C@H]1C[C@]2(C)[C@@H](O)CC[C@H]2[C@@H]2CCc3cc(O)ccc3[C@@H]12` [Compound 1]: the Rating entry is listed as “−”.
With `C=CCC[C@H]1C[C@]2(C)[C@@H](O)CC[C@H]2[C@@H]2CCc3cc(O)ccc3[C@@H]12` [Compound 2] the entry was “−”.
With `C=CCCC[C@H]1C[C@]2(C)[C@@H](O)CC[C@H]2[C@@H]2CCc3cc(O)ccc3[C@@H]12` [Compound 3] the entry was “+”; with `C#CCC[C@H]1C[C@]2(C)[C@@H](O)CC[C@H]2[C@@H]2CCc3cc(O)ccc3[C@@H]12` [Compound 4], “−”.
Next, `CC#CCC[C@H]1C[C@]2(C)[C@@H](O)CC[C@H]2[C@@H]2CCc3cc(O)ccc3C12` (some centres unmarked) [Compound 5]: “+”; `C#CCCC[C@H]1C[C@]2(C)[C@@H](O)CC[C@H]2[C@@H]2CCc3cc(O)ccc3[C@@H]12` [Compound 6]: “+”.
Regarding `C[C@]12C[C@H](CC=C3CC3)[C@@H]3c4ccc(O)cc4CC[C@H]3[C@@H]1CC[C@@H]2O` [Compound 7], the Rating entry is “−”.
With `C[C@]12C[C@H](CCC=C3CC3)[C@@H]3c4ccc(O)cc4CC[C@H]3[C@@H]1CC[C@@H]2O` [Compound 8] the entry was “+”.
With `CCC[C@H]1C[C@]2(C)[C@@H](O)CC[C@H]2[C@@H]2CCc3cc(O)ccc3[C@@H]12` [Compound 9] the entry was “−”.
Next, `CCCC[C@H]1C[C@]2(C)[C@@H](O)CC[C@H]2[C@@H]2CCc3cc(O)ccc3[C@@H]12` [Compound 10]: “−”; `CCCCC[C@H]1C[C@]2(C)[C@@H](O)CC[C@H]2[C@@H]2CCc3cc(O)ccc3[C@@H]12` [Compound 11]: “+”.

The record behind these values is patent US7528123B1, “Estrogenic estra-1,3,5(10)-trienes with differential effects on the alpha and beta estrogen receptors, having a linear hydrocarbon chain of from 5-9 carbon atoms in position 11” (N.V. Organon, priority 1998, dated 2009).
